Values from PubChem BioAssay AID1224830 (NIAID, 2016)
Aim: 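Regulators of TLR4 signalling towards TNF-alpha in macrophage-like cells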 (primary screen). Cell system: human THP-1 monocytic leukaemia cells, TNF dual-luciferase reporter clone, PMA-differentiated to macrophage-like cells. Reagents: siRNA pool against human genes, 50 nM. Time to read-out: LPS for 4 h, given about 3 days after siRNA transfection. Conditions: bacterial LPS (TLR4 ligand), 10 ng/ml. Measurement: 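TNF firefly reporter luminescence divided by renilla, normalised to the plate median, then turned into a robust z-score for each replicate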. Direction: TNF reporter robust z-score: higher = stronger TNF reporter response to LPS. Call rule: 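a well is active when its z-score exceeds 2.8 or falls below -1.5; control wells carry no call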.
Here is one part, drawn at random, of about 18,000 reagents. Of all reagents, about 2,900 (16%) are marked active. 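Calls are made per well; low scores hint the gene aids the LPS response, high scores that it dampens it.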 Repeated entries: four replicate wells of each siRNA pool.

target | TNF reporter robust z-score | activity call
XAGE3 (X antigen family member 3) | -1.01 | inactive
XAGE3 (X antigen family member 3) | -0.27 | inactive
XAGE3 (X antigen family member 3) | -1 | inactive
XAGE3 (X antigen family member 3) | -0.21 | inactive
GSTM1 (glutathione S-transferase mu 1) | 1.05 | inactive
GSTM1 (glutathione S-transferase mu 1) | 0.63 | inactive
GSTM1 (glutathione S-transferase mu 1) | 0.59 | inactive
GSTM1 (glutathione S-transferase mu 1) | 0.41 | inactive
NOVA2 (NOVA alternative splicing regulator 2) | 0.09 | inactive
NOVA2 (NOVA alternative splicing regulator 2) | 1.84 | inactive
NOVA2 (NOVA alternative splicing regulator 2) | 0.2 | inactive
NOVA2 (NOVA alternative splicing regulator 2) | 1.03 | inactive
PLP1 (proteolipid protein 1) | 1.22 | inactive
PLP1 (proteolipid protein 1) | 1.47 | inactive
PLP1 (proteolipid protein 1) | 1.07 | inactive
PLP1 (proteolipid protein 1) | 0.15 | inactive
POPDC3 (popeye domain cAMP effector 3) | -0.8 | inactive
POPDC3 (popeye domain cAMP effector 3) | 0.26 | inactive
POPDC3 (popeye domain cAMP effector 3) | 0.14 | inactive
POPDC3 (popeye domain cAMP effector 3) | 0.53 | inactive
NUMA1 (nuclear mitotic apparatus protein 1) | -0.45 | inactive
NUMA1 (nuclear mitotic apparatus protein 1) | -0.38 | inactive
NUMA1 (nuclear mitotic apparatus protein 1) | -0.67 | inactive
NUMA1 (nuclear mitotic apparatus protein 1) | -1.29 | inactive
SEC22C (SEC22 homolog C, vesicle trafficking protein) | -0.66 | inactive
SEC22C (SEC22 homolog C, vesicle trafficking protein) | -0.07 | inactive
SEC22C (SEC22 homolog C, vesicle trafficking protein) | -0.02 | inactive
SEC22C (SEC22 homolog C, vesicle trafficking protein) | -0.43 | inactive
DUSP28 (dual specificity phosphatase 28) | 1.1 | inactive
DUSP28 (dual specificity phosphatase 28) | 1.09 | inactive
DUSP28 (dual specificity phosphatase 28) | -0.29 | inactive
DUSP28 (dual specificity phosphatase 28) | 1.37 | inactive
ANAPC1 (anaphase promoting complex subunit 1) | -0.48 | inactive
ANAPC1 (anaphase promoting complex subunit 1) | 0.02 | inactive
ANAPC1 (anaphase promoting complex subunit 1) | -0.23 | inactive
ING3 (inhibitor of growth family member 3) | -1.17 | inactive
ING3 (inhibitor of growth family member 3) | -1 | inactive
ING3 (inhibitor of growth family member 3) | 0.09 | inactive
ING3 (inhibitor of growth family member 3) | -0.51 | inactive
KCNJ15 (potassium inwardly rectifying channel subfamily J member 15) | -0.07 | inactive
KCNJ15 (potassium inwardly rectifying channel subfamily J member 15) | 0.4 | inactive
KCNJ15 (potassium inwardly rectifying channel subfamily J member 15) | -1.33 | inactive
KCNJ15 (potassium inwardly rectifying channel subfamily J member 15) | -0.17 | inactive
PARP16 (poly(ADP-ribose) polymerase family member 16) | -0.19 | inactive
PARP16 (poly(ADP-ribose) polymerase family member 16) | -0.27 | inactive
PARP16 (poly(ADP-ribose) polymerase family member 16) | -1.32 | inactive
PARP16 (poly(ADP-ribose) polymerase family member 16) | 0.86 | inactive
SLC3A1 | -0.55 | inactive
SLC3A1 | -0.51 | inactive
SLC3A1 | 0.27 | inactive
SLC3A1 | 0.21 | inactive
GCM2 (GCM transcription factor 2) | 0.58 | inactive
GCM2 (GCM transcription factor 2) | 0.59 | inactive
GCM2 (GCM transcription factor 2) | -0.57 | inactive
GCM2 (GCM transcription factor 2) | 0.47 | inactive
HIC2 (HIC ZBTB transcriptional repressor 2) | -0.23 | inactive
HIC2 (HIC ZBTB transcriptional repressor 2) | 0.03 | inactive
HIC2 (HIC ZBTB transcriptional repressor 2) | 0.1 | inactive
HIC2 (HIC ZBTB transcriptional repressor 2) | 0.95 | inactive
NAGPA | 1.42 | inactive
NAGPA | 0.43 | inactive
NAGPA | 1.08 | inactive
NAGPA | 1.82 | inactive
OXGR1 (oxoglutarate receptor 1) | -0.78 | inactive
OXGR1 (oxoglutarate receptor 1) | -0.27 | inactive
OXGR1 (oxoglutarate receptor 1) | -0.61 | inactive
OXGR1 (oxoglutarate receptor 1) | -0.65 | inactive
PRPF6 (pre-mRNA processing factor 6) | -0.68 | inactive
PRPF6 (pre-mRNA processing factor 6) | -0.18 | inactive
PRPF6 (pre-mRNA processing factor 6) | -1.3 | inactive
PRPF6 (pre-mRNA processing factor 6) | -0.45 | inactive
TNRC6A (trinucleotide repeat containing adaptor 6A) | 0.27 | inactive
TNRC6A (trinucleotide repeat containing adaptor 6A) | 1.23 | inactive
TNRC6A (trinucleotide repeat containing adaptor 6A) | -0.63 | inactive
TNRC6A (trinucleotide repeat containing adaptor 6A) | 1.44 | inactive
EDNRB (endothelin receptor type B) | -0.66 | inactive
EDNRB (endothelin receptor type B) | -0.14 | inactive
EDNRB (endothelin receptor type B) | -0.55 | inactive
EDNRB (endothelin receptor type B) | 0.38 | inactive
BNC1 (basonuclin zinc finger protein 1) | -0.16 | inactive
BNC1 (basonuclin zinc finger protein 1) | -0.07 | inactive
BNC1 (basonuclin zinc finger protein 1) | -1.2 | inactive
BNC1 (basonuclin zinc finger protein 1) | -0.79 | inactive
ESR1 (estrogen receptor 1) | 1.26 | inactive
ESR1 (estrogen receptor 1) | 2.34 | inactive
ESR1 (estrogen receptor 1) | 1.01 | inactive
ESR1 (estrogen receptor 1) | 3.73 | active
IL18RAP (interleukin 18 receptor accessory protein) | 0.22 | inactive
IL18RAP (interleukin 18 receptor accessory protein) | 1.74 | inactive
IL18RAP (interleukin 18 receptor accessory protein) | 1.33 | inactive
IL18RAP (interleukin 18 receptor accessory protein) | 1.82 | inactive
PDE6G (phosphodiesterase 6G) | 1.09 | inactive
PDE6G (phosphodiesterase 6G) | 1.96 | inactive
PDE6G (phosphodiesterase 6G) | 1.99 | inactive
PDE6G (phosphodiesterase 6G) | 2.56 | inactive
REN (renin) | 1.78 | inactive
REN (renin) | 0.77 | inactive
REN (renin) | -0.35 | inactive
REN (renin) | -0.4 | inactive
ZNF367 (zinc finger protein 367) | -0.02 | inactive
ZNF367 (zinc finger protein 367) | -0.04 | inactive
ZNF367 (zinc finger protein 367) | 0.02 | inactive
KCNA6 (potassium voltage-gated channel subfamily A member 6) | -0.62 | inactive
KCNA6 (potassium voltage-gated channel subfamily A member 6) | -0.11 | inactive
KCNA6 (potassium voltage-gated channel subfamily A member 6) | 1.58 | inactive
KCNA6 (potassium voltage-gated channel subfamily A member 6) | -0.13 | inactive
C3orf36 (chromosome 3 putative open reading frame 36) | -0.12 | inactive
C3orf36 (chromosome 3 putative open reading frame 36) | -0.16 | inactive
C3orf36 (chromosome 3 putative open reading frame 36) | -0.09 | inactive
C3orf36 (chromosome 3 putative open reading frame 36) | 0.82 | inactive

Not a retest: entries from further up.
target | TNF reporter robust z-score | activity call
ESR1 (estrogen receptor 1) | 1.26 | inactive
ESR1 (estrogen receptor 1) | 2.34 | inactive
ESR1 (estrogen receptor 1) | 1.01 | inactive
ESR1 (estrogen receptor 1) | 3.73 | active
IL18RAP (interleukin 18 receptor accessory protein) | 0.22 | inactive
IL18RAP (interleukin 18 receptor accessory protein) | 1.74 | inactive
IL18RAP (interleukin 18 receptor accessory protein) | 1.33 | inactive
IL18RAP (interleukin 18 receptor accessory protein) | 1.82 | inactive
PDE6G (phosphodiesterase 6G) | 1.09 | inactive
PDE6G (phosphodiesterase 6G) | 1.96 | inactive
